Assay results reported in article PMC12120245.
No constants are given. Whether binding was seen depends on the method and setting. Binding seen in cells or lysates may run through a third protein. A result given as binding can be weak or reduced; the word gives no strength.

Amino acid sequences for entries named in this document (tags omitted). A change or cut given only in a name is not applied to a line headed by its entry.
UniProt Q15652: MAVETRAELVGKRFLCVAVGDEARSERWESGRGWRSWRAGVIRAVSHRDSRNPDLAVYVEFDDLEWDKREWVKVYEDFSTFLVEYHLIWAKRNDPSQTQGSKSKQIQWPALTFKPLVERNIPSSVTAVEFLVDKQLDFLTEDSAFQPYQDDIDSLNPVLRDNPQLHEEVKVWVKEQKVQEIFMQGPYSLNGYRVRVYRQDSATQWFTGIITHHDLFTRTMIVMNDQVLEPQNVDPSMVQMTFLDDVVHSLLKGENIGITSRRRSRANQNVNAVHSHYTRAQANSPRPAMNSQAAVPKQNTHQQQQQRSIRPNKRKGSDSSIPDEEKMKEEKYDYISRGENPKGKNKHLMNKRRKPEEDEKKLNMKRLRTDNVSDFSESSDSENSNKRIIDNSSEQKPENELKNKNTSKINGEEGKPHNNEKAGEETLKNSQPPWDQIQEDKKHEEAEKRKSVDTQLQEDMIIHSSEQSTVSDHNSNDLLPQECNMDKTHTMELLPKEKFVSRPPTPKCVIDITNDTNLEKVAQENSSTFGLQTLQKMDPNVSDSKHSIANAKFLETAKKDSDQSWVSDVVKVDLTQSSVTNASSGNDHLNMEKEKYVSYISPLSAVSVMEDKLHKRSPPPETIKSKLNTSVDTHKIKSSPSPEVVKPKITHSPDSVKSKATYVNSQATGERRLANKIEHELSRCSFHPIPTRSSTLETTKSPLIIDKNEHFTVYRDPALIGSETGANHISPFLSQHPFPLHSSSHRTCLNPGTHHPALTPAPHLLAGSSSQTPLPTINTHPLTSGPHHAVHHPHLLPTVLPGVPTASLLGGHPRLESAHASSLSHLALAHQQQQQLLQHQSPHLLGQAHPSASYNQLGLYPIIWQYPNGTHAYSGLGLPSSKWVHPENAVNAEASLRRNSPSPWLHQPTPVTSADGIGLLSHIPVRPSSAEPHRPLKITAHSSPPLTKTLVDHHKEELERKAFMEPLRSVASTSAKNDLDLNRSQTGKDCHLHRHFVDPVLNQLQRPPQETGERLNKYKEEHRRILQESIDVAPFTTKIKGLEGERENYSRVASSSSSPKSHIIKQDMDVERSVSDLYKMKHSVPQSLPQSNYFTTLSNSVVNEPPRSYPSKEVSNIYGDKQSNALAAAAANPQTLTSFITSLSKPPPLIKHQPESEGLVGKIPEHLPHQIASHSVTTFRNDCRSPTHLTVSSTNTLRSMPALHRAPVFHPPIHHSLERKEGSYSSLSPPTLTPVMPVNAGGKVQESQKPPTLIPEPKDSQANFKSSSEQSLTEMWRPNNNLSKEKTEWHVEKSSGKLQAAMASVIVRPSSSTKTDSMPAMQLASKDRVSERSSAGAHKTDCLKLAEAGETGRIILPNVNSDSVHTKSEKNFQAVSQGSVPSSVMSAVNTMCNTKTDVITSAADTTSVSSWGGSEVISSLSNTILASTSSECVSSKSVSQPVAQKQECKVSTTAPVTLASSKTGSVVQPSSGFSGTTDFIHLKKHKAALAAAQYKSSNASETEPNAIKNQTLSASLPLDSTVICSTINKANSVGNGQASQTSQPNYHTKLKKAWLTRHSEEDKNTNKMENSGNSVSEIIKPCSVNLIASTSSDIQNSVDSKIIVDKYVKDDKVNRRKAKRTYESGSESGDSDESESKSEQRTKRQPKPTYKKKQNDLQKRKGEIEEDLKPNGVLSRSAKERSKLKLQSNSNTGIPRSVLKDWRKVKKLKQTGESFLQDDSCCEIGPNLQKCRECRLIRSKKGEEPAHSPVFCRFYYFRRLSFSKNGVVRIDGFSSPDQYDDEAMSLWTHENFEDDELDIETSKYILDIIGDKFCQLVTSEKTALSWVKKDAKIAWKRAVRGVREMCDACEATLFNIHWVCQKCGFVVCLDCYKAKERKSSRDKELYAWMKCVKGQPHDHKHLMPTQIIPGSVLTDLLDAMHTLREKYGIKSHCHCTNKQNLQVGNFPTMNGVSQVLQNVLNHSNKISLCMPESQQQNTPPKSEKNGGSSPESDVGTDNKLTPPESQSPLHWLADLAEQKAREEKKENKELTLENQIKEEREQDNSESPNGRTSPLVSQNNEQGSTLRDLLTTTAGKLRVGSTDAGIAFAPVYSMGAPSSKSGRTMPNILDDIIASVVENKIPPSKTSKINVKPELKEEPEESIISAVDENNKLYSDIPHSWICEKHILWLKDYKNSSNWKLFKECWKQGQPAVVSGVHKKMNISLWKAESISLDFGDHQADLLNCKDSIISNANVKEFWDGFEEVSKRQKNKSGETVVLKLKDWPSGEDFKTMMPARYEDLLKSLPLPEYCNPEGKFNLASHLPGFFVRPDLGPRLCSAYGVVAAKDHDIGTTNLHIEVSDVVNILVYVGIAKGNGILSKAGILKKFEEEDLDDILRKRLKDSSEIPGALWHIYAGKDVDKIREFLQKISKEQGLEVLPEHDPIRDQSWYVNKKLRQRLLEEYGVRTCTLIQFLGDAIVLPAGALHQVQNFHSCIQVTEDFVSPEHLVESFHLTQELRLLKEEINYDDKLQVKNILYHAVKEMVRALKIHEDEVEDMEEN
UniProt Q01196: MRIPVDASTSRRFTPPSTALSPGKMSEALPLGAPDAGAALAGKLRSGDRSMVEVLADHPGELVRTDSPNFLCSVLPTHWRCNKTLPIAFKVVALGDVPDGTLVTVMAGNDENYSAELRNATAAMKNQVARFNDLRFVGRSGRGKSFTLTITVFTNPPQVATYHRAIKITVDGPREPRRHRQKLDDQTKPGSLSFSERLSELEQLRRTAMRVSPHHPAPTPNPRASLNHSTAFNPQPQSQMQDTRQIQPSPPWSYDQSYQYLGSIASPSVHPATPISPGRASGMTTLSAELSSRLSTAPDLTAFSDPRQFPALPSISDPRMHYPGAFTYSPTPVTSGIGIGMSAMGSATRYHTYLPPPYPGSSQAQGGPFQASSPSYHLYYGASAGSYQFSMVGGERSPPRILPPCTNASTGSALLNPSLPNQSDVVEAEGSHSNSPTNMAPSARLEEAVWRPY

How the values were obtained:
[1] = target: JMJD1C (Jumonji Domain Containing 1C) (human (endogenous in AML cell lines)) (UniProt Q15652); test: co-IP; JMJD1C antibody or IgG on protein A/G beads with nuclear extracts of six AML cell lines; BC300, 4°C, 4 h; washed with BC150; immunoblot
[2] = target: JMJD1C (Jumonji Domain Containing 1C) (human (endogenous in AML cell lines)) (UniProt Q15652); test: co-IP; JMJD1C antibody with extracts of HL-60, MOLM-13, THP-1 and Kasumi-1 cells in which flag-mCherry-RUNX1 was induced with doxycycline (1 μg/mL, 48 h); immunoblot

binding [1] | binding [2] | Substance
binds | – | RUNX1 (AML1) (from UniProt Q01196 1-453)
– | binds | flag-mCherry-RUNX1 (doxycycline-inducible, in AML cells) (from UniProt Q01196 1-453)
